Measured values reported in patent US7588931B2, “High arachidonic acid producing strains of Yarrowia lipolytica” (E. I. du Pont de Nemours and Company, priority 2004, dated 2009).

Test system: Yarrowia lipolytica strain Y2031
Test: Lipid composition of strain Y2031 over-expressing M. alpina ELO3
Assay type: cell-based

B1: ELO3: M. alpina C16/18 fatty acid elongase, SEQ ID NOs:53 and 54 (protein, listed as Mortierella alpina)
chain: MESGPMPAGIPFPEYYDFFMDWKTPLAIAATYTAAVGLFNPKVGKVSRVVAKSANAKPAERTQSGAAMTAFVFVHNLILCVYSGITFYYMFPAMVKNFRTHTLHEAYCDTDQSLWNNALGYWGYLFYLSKFYEVIDTIIIILKGRRSSLLQTYHHAGAMITMWSGINYQATPIWIFVVFNSFIHTIMYCYYAFTSIGFHPPGKKYLTSMQITQFLVGITIAVSYLFVPGCIRTPGAQMAVWINVGYLFPLTYLFVDFAKRTYSKRSAIAAQKKAQ
B1 was tested, and the “less C16 fatty acids relative to control strains” value was 31% and the “more C18 fatty acids (18:0, 18:1, 18:2 and GLA) relative to control strains” value was 35%.
